This is an account of results in patent US20060252697A1 (ANTYRA, published 2006).

No constants are given. Whether binding was seen depends on the method and setting. Some results given as binding are weak or reduced against the parent protein; the word gives no strength.

This test addresses T1, rat growth hormone binding protein (rGHBP) (rat) (UniProt P16310).
T1 sequence (looked up): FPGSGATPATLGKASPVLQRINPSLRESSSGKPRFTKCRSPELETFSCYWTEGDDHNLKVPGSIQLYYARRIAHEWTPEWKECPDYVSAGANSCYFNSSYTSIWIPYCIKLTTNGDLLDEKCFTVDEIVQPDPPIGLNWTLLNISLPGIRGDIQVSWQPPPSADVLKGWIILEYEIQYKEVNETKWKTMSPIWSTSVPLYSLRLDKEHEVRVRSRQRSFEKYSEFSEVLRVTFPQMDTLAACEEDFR
The experiment in a line: phage ELISA on rGHBP-coated wells (100 ng/well); clones from panning of the secondary H5 library.

B1: … (peptide)
peptide: LCQRLGIGWPGWLAGWCA
Turning to B1, the binding entry is listed as “binds”.

B2: … (peptide)
peptide: LCQSLGVTYPGWLDGWCA
Take B2: the binding result was “binds”.

B3: … (peptide)
peptide: LCQSLGVSWPGWLTGWCA
Regarding B3, the binding result was “binds”.

B4: … (peptide)
peptide: LCQRLVVGWPGWLAGWCA
For the molecule B4, the binding entry was “binds”.

B5: … (peptide)
peptide: LCQSLGVTFPGWLAGWCA
As for B5, the binding entry is given as “binds”.

B6: … (peptide)
peptide: LCQSLGITYPGWLAGWCA
Take B6: the binding result is “binds”.

B7: … (peptide)
peptide: LCQSLPVRYPGWLSGWCS
For the molecule B7, the binding result was “binds”.

B8: … (peptide)
peptide: LCQNLGITWPGWLAGWCA
Regarding B8, the binding result is reported as “binds”.

B9: … (peptide)
peptide: LCQSLGEAYPGWLAGWCA
With B9, the binding result was “binds”.

B10: … (peptide)
peptide: LCQSLGLRYPGWLAGWCA
As to B10, the binding result is on record as “binds”.

B11: … (peptide)
peptide: LCQRLGVTYPGWLAGWCA
As for B11, the binding result is “binds”.

B12: … (peptide)
peptide: LCQSLGVSYPGWLTGWCA
For the molecule B12, the binding result was “binds”.

B13: … (peptide)
peptide: LCQSLGVSYPGWLAGWCA
Turning to B13, the binding entry was “binds”.

B14: … (peptide)
peptide: LCQRLGVGWPGWLAGWCA
For the molecule B14, the binding entry is given as “binds”.

B15: … (peptide)
peptide: LCQSLGIGYPGWLTGWCA
As to B15, the binding result was “binds”.

B16: … (peptide)
peptide: LCQSLGVGYPGWLAGWCA
Turning to B16, the binding result is given as “binds”.

B17: … (peptide)
peptide: LCQSLGVLYPGWLAGWCA
On to B17, for which the binding entry was “binds”.

B18: … (peptide)
peptide: LCQRLGVTWPGWIAGWCA
B18: the binding entry was “binds”.

B19: … (peptide)
peptide: LCQHLGVTWPGWLAGWCA
Consider B19, for which the binding entry is “binds”.

B20: … (peptide)
peptide: LCQRLEATWPGWLVGWCA
As for B20, the binding result was “binds”.

B21: … (peptide)
peptide: LCQALGVTYPGWLAGWCA
Regarding B21, the binding result is listed as “binds”.

B22: … (peptide)
peptide: LCQSLGVTYPGWLTGWCA
With B22, the binding result is listed as “binds”.

B23: … (peptide)
peptide: LCQSLGVTFPGWLSGWCA
Take B23: the binding result is “binds”.

B24: … (peptide)
peptide: LCQSLGPTYPGWLAGWCA
Take B24: the binding entry was “binds”.

B25: … (peptide)
peptide: LCQRLGATWPGWLAGWCA
On to B25, for which the binding entry is given as “binds”.

B26: … (peptide)
peptide: LCQSWQVTWPGWLAGWCA
On to B26, for which the binding entry is given as “binds”.

B27: … (peptide)
peptide: LCQSLGVTYPGWLAAWCR
B27: the binding entry was “binds”.

B28: … (peptide)
peptide: LCQSLGVWWPGWLAGWCA
B28: the binding result is “binds”.

B29: … (peptide)
peptide: LCQRLGVGWPGWLSGWCA
As for B29, the binding entry is given as “binds”.

B30: … (peptide)
peptide: LCQSLGVTYPGWLSGWCA
Take B30: the binding entry was “binds”.

B31: … (peptide)
peptide: LCQSLGVTYPGWLAGWCS
Turning to B31, the binding entry was “binds”.

B32: … (peptide)
peptide: LCQTLGVTYPGWLAGWCA
As to B32, the binding result is on record as “binds”.

B33: … (peptide)
peptide: LCQRLGVTWPGWLTGWCA
B33: the binding entry was “binds”.

B34: … (peptide)
peptide: LCQSLGLTYPGWLAGWCG
With B34, the binding entry was “binds”.

B35: … (peptide)
peptide: LCQRLGVGWPGWVAGWCA
As for B35, the binding result is “binds”.

B36: … (peptide)
peptide: LCQSLGVNYPGWLAGWCA
Take B36: the binding entry is recorded as “binds”.

B37: … (peptide)
peptide: LCQSLGVTWPGWLAGWCA
Consider B37, for which the binding entry is given as “binds”.

B38: … (peptide)
peptide: LCQSLAVTYPGWLAGWCA
For the molecule B38, the binding entry is given as “binds”.

B39: … (peptide)
peptide: LCQSLGVRYPGWLAGWCA
With B39, the binding entry is given as “binds”.

B40: … (peptide)
peptide: LCQSLGVSYPGWLVGWCA
Turning to B40, the binding result is recorded as “binds”.

B41: … (peptide)
peptide: LCQSLGVTYPGWLAGWCG
Turning to B41, the binding entry is “binds”.

B42: … (peptide)
peptide: LCQSLGVGWPGWLTGWCA
Consider B42, for which the binding result is “binds”.

B43: … (peptide)
peptide: LCQNLGVTWPGWLAGWCA
In the case of B43, the binding entry is on record as “binds”.

B44: … (peptide)
peptide: LCQSLGVGWPGWLAGWCA
B44: the binding result is “binds”.

B45: … (peptide)
peptide: LCQRLGVTWPGWLWGWCA
On to B45, for which the binding entry is on record as “binds”.

B46: … (peptide)
peptide: MCQSLGVTYPGWLAGWCA
Regarding B46, the binding result is listed as “binds”.

B47: … (peptide)
peptide: LCQRFGVGFPGWLAGWCA
As for B47, the binding result is on record as “binds”.

B48: … (peptide)
peptide: LCQSLGVKYPGWLTGWCA
Consider B48, for which the binding result was “binds”.

B49: … (peptide)
peptide: LCQSLGVTYPGWLVGWCA
B49: the binding result was “binds”.

B50: … (peptide)
peptide: LCQSLGDKYPGWLAGWCA
Consider B50, for which the binding result is “binds”.

B51: … (peptide)
peptide: LCQSLGATWPGWLAGWCA
On to B51, for which the binding entry is listed as “binds”.

B52: … (peptide)
peptide: LCQRLGLTWPGWLAGWCA
Turning to B52, the binding result is given as “binds”.

B53: … (peptide)
peptide: LCQRLGVTWPGWLAGWCA
Consider B53, for which the binding result was “binds”.

B54: … (peptide)
peptide: LCQSLGDTYPGWLAGWCA
In the case of B54, the binding result is “binds”.

B55: … (peptide)
peptide: LCQSLGVNWPGWLAGWCA
Take B55: the binding entry was “binds”.

B56: … (peptide)
peptide: LCQSLGVKYPGWLAGWCA
Consider B56, for which the binding entry is given as “binds”.

B57: … (peptide)
peptide: LCQSLGVAYPGWLAGWCA
For the molecule B57, the binding entry is listed as “binds”.

B58: … (peptide)
peptide: LCQSLGFTYPGWLAGWCA
Consider B58, for which the binding entry is given as “binds”.

B59: … (peptide)
peptide: LCQSLGATYPGWLWGWCA
Take B59: the binding entry was “binds”.

B60: … (peptide)
peptide: LCQTLGVKYPGWLAGWCA
Take B60: the binding result is listed as “binds”.

B61: … (peptide)
peptide: LCQRLGVSWPGWLAGWCA
Regarding B61, the binding entry is “binds”.
